Consider one substance from PMC9827817.

Amino acid sequences for entries named in this document (tags omitted).
UniProt O96013: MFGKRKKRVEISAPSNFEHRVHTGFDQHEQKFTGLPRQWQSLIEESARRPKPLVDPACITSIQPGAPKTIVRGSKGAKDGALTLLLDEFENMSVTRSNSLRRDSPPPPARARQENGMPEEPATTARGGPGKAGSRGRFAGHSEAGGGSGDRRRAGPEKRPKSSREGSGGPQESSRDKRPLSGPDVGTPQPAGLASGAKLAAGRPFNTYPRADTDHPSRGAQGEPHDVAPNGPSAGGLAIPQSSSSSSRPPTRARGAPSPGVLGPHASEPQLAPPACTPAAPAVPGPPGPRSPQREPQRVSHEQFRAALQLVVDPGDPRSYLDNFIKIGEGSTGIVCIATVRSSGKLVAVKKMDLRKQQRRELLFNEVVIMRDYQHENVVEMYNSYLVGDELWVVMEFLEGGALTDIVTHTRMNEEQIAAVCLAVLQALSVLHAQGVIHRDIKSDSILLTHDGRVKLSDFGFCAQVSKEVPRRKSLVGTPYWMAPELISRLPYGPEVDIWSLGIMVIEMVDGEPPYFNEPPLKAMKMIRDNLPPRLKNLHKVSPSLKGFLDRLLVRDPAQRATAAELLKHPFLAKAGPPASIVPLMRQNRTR
UniProt Q9ULV4: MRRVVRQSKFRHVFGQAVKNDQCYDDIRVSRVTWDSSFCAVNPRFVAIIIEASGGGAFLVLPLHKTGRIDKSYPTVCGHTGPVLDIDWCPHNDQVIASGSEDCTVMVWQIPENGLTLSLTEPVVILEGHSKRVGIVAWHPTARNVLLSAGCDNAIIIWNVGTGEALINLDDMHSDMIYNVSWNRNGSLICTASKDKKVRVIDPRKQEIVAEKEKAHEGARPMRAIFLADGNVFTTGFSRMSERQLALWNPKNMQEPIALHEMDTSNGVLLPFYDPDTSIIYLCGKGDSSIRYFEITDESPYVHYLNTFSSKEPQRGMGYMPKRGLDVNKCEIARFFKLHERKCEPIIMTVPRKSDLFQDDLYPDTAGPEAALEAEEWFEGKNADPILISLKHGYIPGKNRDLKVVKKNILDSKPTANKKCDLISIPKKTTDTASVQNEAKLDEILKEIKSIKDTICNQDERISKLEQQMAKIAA

These are yes or no findings as the source states them, for the method shown. In cells and extracts the contact can be indirect. These calls come from enrichment with a bait or labelling near it, and not all partners need be listed.

For this assay, the target named is Flag-tagged PAK4 (P21-activated kinase 4), overexpressed in SGC-7901 cells (UniProt O96013). Briefly: affinity purification with mass spectrometry; Flag-tagged PAK4 overexpressed in SGC-7901 cells; lysate immunoprecipitated with anti-Flag antibody; immunoprecipitates analysed by mass spectrometry.

“CORO1C in gastric cancer cell lysate (from UniProt Q9ULV4 1-474)”: the binding entry is listed as “binds”.
